According to patent US10563171B2, “Method for inducing differentiation of pluripotent stem cells into germ cells” (Kyoto University, priority 2015, dated 2020):
Some results were stated once for a whole list of compounds, not compound by compound.

Tested on: BTAG 585B1-868 hiPSCs
Experiment: Induction of iMeLCs from hiPSCs having induction capacity into BTAG positive cells (FACS of BTAG(+) cells)
Format: cell-based, human
Settings: used instead of CHIR99021; FIG. 10B
Protocol: Initial mesoderm-like cells (iMeLCs) were induced by seeding hiPSCs maintained in StemFit™ in a 12 well plate coated with human plasma fibronectin (Millipore, FC010) at 1.0-2.0×10^5 cells per well in GK15 medium [GMEM containing 15% KSR, 0.1 mM NEAA, 2 mM L-glutamine, 1 mM sodium pyruvate and 0.1 mM 2-mercaptoethanol (Life Technologies)] containing 50 ng/ml activin A, 3 μM CHIR99021 and 10 μM ROCK inhibitor (Y-27632; Wako Pure Chemical Industries). The hiPSCs were induced by seeding in a low-cell-binding V-bottom 96 wellplate (Thermo, 81100574) at 3.0×10^3 cells per well in GK15 added with 1000 U/ml LlF (Millipore, #LIF1005), 200 ng/ml BMP 4,100 ng/ml SCF (R&D Systems, 455-MC), 50 ng/ml EGF (R&D Systems, 236-EG), and 10 μM ROCK inhibitor. For investigation of conditions and induction of iMeLCs or hPGCLC, PD173074 (StemGent, #04-0008) or LDN193189 (StemGent, #04-0074) was respectively added. Other than the above, WNT3A (R&D Systems, 5036-WN) was used instead of CHIR99021, and BMP2 (R&D Systems, 355-BM), BMP7 (R&D Systems, 354-BP), or BMP8A (R&D Systems, 1073-BP) was used instead of BMP4.
Floating aggregates containing hPGCLCs were separated by treating with 0.05% Trypsin-EDTA/PBS at 37° C. for 10 min. […] The collected cells were suspended in FACS buffer (0.1% BSA in PBS) and analyzed by a flow cytometer (ARIA III; BD Biosciences). […]

B1: WNT3A: WNT3A (R&D Systems) used instead of CHIR99021 (protein, UniProt P56704 19-352, looked up)
Protein Wnt-3a: SYPIWWSLAVGPQYSSLGSQPILCASIPGLVPKQLRFCRNYVEIMPSVAEGIKIGIQECQHQFRGRRWNCTTVHDSLAIFGPVLDKATRESAFVHAIASAGVAFAVTRSCAEGTAAICGCSSRHQGSPGKGWKWGGCSEDIEFGGMVSREFADARENRPDARSAMNRHNNEAGRQAIASHMHLKCKCHGLSGSCEVKTCWWSQPDFRAIGDFLKDKYDSASEMVVEKHRESRGWVETLRPRYTYFKVPTERDLVYYEASPNFCEPNPETGSFGTRDRTCNVSSHGIDGCDLLCCGRGHNARAERRREKCRCVFHWCCYVSCQECTRVYDVHTCK
**Q.** How did the “concentration at which CHIR is replaceable in iMeLC induction” value turn out when B1 was run?
**A.** not less than 50 ng/ml
